The values that follow come from article PMC10163288.

To fix the notation:
B1: il2ra_site1_3nfp_normal_mot_HHH_b1_04735_000000141_0001_19_38_H_._80d2c3d53f8320a55307537ed575e81c_0001_0001_0000400031_0000001_0 (protein)
chain: SEYDELFRRAVRLLPPEAIELLFRVLKRAIKNGDEELARELVEEVLELAKHDPREAEEFLQEILK
B2: il2ra_site2_3nfp_sap_18_mot_HHH_b1_00239_000000199_0001_23_39_H_._ad81070c4fcd12ba5f163adb410dbfa5_0001_0001_0000600043_0000001_0_0001 (protein)
chain: SDAYRLAEEALRLAEEVKEDPEKREELAEEVKRLAEEVEKNAKTEAERLAARLIRAHALVNEESS
B3: il2ra_site2_3nfp_normal_mot_ems_p1-15H-GBL-16H-GBL-14H_0089_0001_0001_0001_af2_000000072_0001_19_33_H_._HHH_b1_02393_0001_0000100012_0000001_0_af2pred_0001_1_af … (protein)
chain: SSSSSDEEEREEVEELLEEAKHIEDEHELFAVLADALTIALELNDPELEELVKRVARKLLSSSSS
B4: il2ra_site2_3nfp_sap_24_mot_HHH_b2_07366_af2_000000244_0001_39_56_H_._HHH_b1_01524_0001_0000600025_0000001_0_0001 (protein)
chain: SSSSSKSEEYLRAALEIARLALEDGDPESAEEIARTALLAARDQGDEELEEEIEELLRKIGSSSS
B5: il2ra_site1_2b5i_normal_mot_HHH_b2_04463_af2_000000056_0001_43_55_H_._HHH_b1_05929_0001_0000200010_0000001_0 (protein)
chain: SSSSDEEDERIDELFIEASRLFRKGNPEEAERVLEEAIKLAEELGDEHQLKQLEFMKEQVGSSSS
B6: il2ra_site2_3nfp_sap_19_mot_HHH_b1_04756_000000059_0001_41_55_H_._51cc31007119fa75359d0ea3f4aa2c22_0001_1_0001_0000100006_0000001_0_0001 (protein)
chain: SSSSDHAEEYLRALELLIKLAFEEGDPEAAERHLEEAEKMAEDNGDEELLEKLEELREKISSSSS
B7: il2ra_site2_2erj_normal_mot_HHH_b1_08185_000000063_0001_41_55_H_._HHH_b2_05996_0001_0000200015_0000001_0 (protein)
chain: SSSSSDEIEEEVLELIAEAAHIPDPKEAVEVLREALELAEEYGNELLRRYLELSIKDIEGSSSSS
B8: il2ra_site1_2b5i_normal_mot_0e5a94e4a5addaac739760efb25f0f5d_0001_000000246_0001_18_32_H_._HHH_b1_04316_0001_0000300016_0000001_0_af2pred_dldesign_0_af2pred (protein)
chain: SSSSTEEERARKKRMVDLIYRIRLKGDPEAVAEATRLATEALESGDPALWDRVEALAARLSSSSS
B9: il2ra_site2_3nfp_normal_mot_HHH_b1_02297_000000279_0001_41_58_H_._HHH_b2_05121_af2_0001_0000200008_0000001_0 (protein)
chain: SSSSDVEEEVKRLLEEAEEATERGDEEKVRELLSRAAHLAYEANDFELFAAVNELLEKFVQSSSS
B10: il2ra_site2_3nfp_normal_mot_HHH_b1_06589_000000230_0001_37_50_H_._HHH_b1_07685_af2_0001_0000200008_0000001_0 (protein)
chain: SSSSDEEVKKLLEEAEELLENGNPEEAKQVASRAALIAFEEGNQELYMAVAELIFKIARNSSSSS
B11: il2ra_site2_2erj_normal_mot_HHH_b1_04373_af2_000000118_0001_18_33_H_._HHH_b2_00961_af2_0001_0000900028_0000001_1 (protein)
chain: SSSSSDEEEVERRVRELLEEAEKVDLEEAYKLAVEALHLAAENRDPELLRLILEWVEKHSSSSSS
B12: il2ra_site2_2erj_sap_20_mot_91f4e0b9ef636147e55e10354d5068a9_0001_000000168_0001_33_48_H_._HHH_b1_03044_af2_0001_0000700014_0000001_0_0001_af2pred_0001_1_af2pre … (protein)
chain: SSSSDEEEERVEELLEEAKRIEDPEEAFAVLSEALEIAEENNNPELFKEVKEVLERLRRGSSSSS
B13: il2ra_site1_1z92_sap_9_mot_HHH_b2_04375_000000267_0001_42_56_H_._HHH_b2_04201_af2_0001_0000600051_0000001_0_0001 (protein)
chain: TRDIREEIEEAIKKNDDELLKEILEQAERDAGDPRLAKQFLKTMIARLLGDPEEAEKIVERIERR
B14: il2ra_site2_3nfp_sap_18_mot_11405e7faed88c9d08fdae67291e590b_0001_1_000000110_0001_14_30_H_._HHH_b2_00163_af2_0001_0000300012_0000001_0_0001 (protein)
chain: SSSSDKHERYLRAALELIERAIREGDHEIARRMLETVKSAAEDNNDEEIEELVEELEELLRSSSS
B15: il2ra_site1_3nfp_normal_mot_HHH_b1_05162_af2_000000139_0001_1_18_H_._HHH_b1_02574_af2_0001_0000600043_0000001_0 (protein)
chain: SSSSDEERREAQELLKEIMKLSKEGDKEEAKRLLEEVRELAEKANDKAAKWLVEELEKLLKSSSS
B16: il2ra_site1_2b5i_normal_mot_HHH_b2_01049_000000145_0001_39_52_H_._HHH_b2_01600_af2_0001_0000100004_0000001_0_af2pred_dldesign_0_af2pred (protein)
chain: SSSSSPKVEAAKAAAEAALAKLRARKRDKRVAFLEEALEELEETKDEKLAEELEKLALLALSSSS
B17: il2ra_site2_2erj_sap_16_mot_HHH_b2_08311_000000098_0001_42_56_H_._HHH_b2_04501_0001_0000700061_0000001_0_0001_af2pred_0001_af2pred_1_swapped (protein)
chain: SSSSSSDVEEEVERLLEEAKHVKDLREAIELLQEASKIAAERDNPELLQLVQRVFQELSSSSSSS
B18: il2ra_site2_2erj_normal_mot_HHH_b1_06554_af2_000000190_0001_44_57_H_._HHH_b2_03035_0001_0000100005_0000001_0_af2pred_0001_af2pred (protein)
chain: SSSSSDEEETRERVEELLEEAKRIPDFHEAFKLLQEADQLAVEYDDPELLELVQRVAQKLSSSSS

The list shows a part of the results.

The target in this experiment is il2ra, P01589. Briefly: yeast display titration.
Consider B1, for which the “apparent Kd” value was “inactive: no binding seen”. As for B2, the “apparent Kd” value is “inactive: no binding seen”. With B3, the “apparent Kd” value was “inactive: no binding seen”. In the case of B4 it was “inactive: no binding seen”; in that of B5, “inactive: no binding seen”; in that of B6, “inactive: no binding seen”. For B7, the “apparent Kd” value was “inactive: no binding seen”. For B8, the “apparent Kd” value was “inactive: no binding seen”. For the molecule B9, the “apparent Kd” value is “inactive: no binding seen”. As for B10, the “apparent Kd” value was “inactive: no binding seen”. As to B11, the “apparent Kd” value is “inactive: no binding seen”. In the case of B12 it was “inactive: no binding seen”.

As for B13, the “apparent Kd” value is “inactive: no binding seen”. Turning to B14, the “apparent Kd” value is “inactive: no binding seen”. Consider B15, for which the “apparent Kd” value was “inactive: no binding seen”. For B16, the “apparent Kd” value was “inactive: no binding seen”. For the molecule B17, the “apparent Kd” value is “inactive: no binding seen”. Regarding B18, the “apparent Kd” value is “inactive: no binding seen”.
